From article PMC10924105
No constants are given. Whether binding was seen depends on the method and setting. Binding seen in cells or lysates may run through a third protein. A yes stands for co-enrichment or nearness to the bait. Other partners may have been found. Sequences can lack the tags named with a protein.

Target: T1, HA-tagged ASGR1 (WT) (UniProt P07306)
T1 sequence: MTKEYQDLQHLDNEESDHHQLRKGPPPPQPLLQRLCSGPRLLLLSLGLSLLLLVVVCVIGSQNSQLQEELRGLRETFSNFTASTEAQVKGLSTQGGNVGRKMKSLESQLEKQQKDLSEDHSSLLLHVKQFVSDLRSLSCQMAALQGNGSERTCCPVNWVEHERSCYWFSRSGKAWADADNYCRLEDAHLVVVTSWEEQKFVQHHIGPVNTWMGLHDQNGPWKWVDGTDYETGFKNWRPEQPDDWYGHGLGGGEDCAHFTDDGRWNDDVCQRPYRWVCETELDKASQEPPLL
Test: affinity purification with mass spectrometry; IP of HA-tagged ASGR1 complexes from HepG2 cells with anti-HA magnetic beads, eluted with HA peptide, trypsin digest, LC-MS/MS; candidates further screened on UniProt for glycan features of ASGR1 ligands

binding: binds
B1: CREB3L1, endogenous in HepG2 cells (protein, UniProt Q96BA8 1-519)
chain: MDAVLEPFPADRLFPGSSFLDLGDLNESDFLNNAHFPEHLDHFTENMEDFSNDLFSSFFDDPVLDEKSPLLDMELDSPTPGIQAEHSYSLSGDSAPQSPLVPIKMEDTTQDAEHGAWALGHKLCSIMVKQEQSPELPVDPLAAPSAMAAAAAMATTPLLGLSPLSRLPIPHQAPGEMTQLPVIKAEPLEVNQFLKVTPEDLVQMPPTPPSSHGSDSDGSQSPRSLPPSSPVRPMARSSTAISTSPLLTAPHKLQGTSGPLLLTEEEKRTLIAEGYPIPTKLPLTKAEEKALKRVRRKIKNKISAQESRRKKKEYVECLEKKVETFTSENNELWKKVETLENANRTLLQQLQKLQTLVTNKISRPYKMAATQTGTCLMVAALCFVLVLGSLVPCLPEFSSGSQTVKEDPLAADGVYTASQMPSRSLLFYDDGAGLWEDGRSTLLPMEPPDGWEINPGGPAEQRPRDHLQHDHLDSTHETTKYLSEAWPKDGGNGTSPDFSHSKEWFHDRDLGPNTTIKLS
